Measured values taken from patent US9840488B2, “Carbon monoxide releasing molecules and associated methods” (Utah State University, priority 2015, dated 2017).
Some of these results come from one statement about several compounds together.

Experiments:
[1] = Solubility and solution stability; details: organic solvents (CH3CN, MeOH, DMSO) as well as aqueous DMSO
[2] = type: physicochemical; details: DMSO and 1:1 DMSO:H2O solution
Experimental: ^1H and ^13C{^1H} NMR spectra (in ppm) were collected using JEOL ECX-300 MHz spectrometer and are referenced to the residual solvent peak in CDCl3 (^1H: 7.26 (singlet) ppm; ^13C 77.16 (singlet) ppm) or DMSO-d6 (^1H: 2.50 ppm (quintet)). J values are given in Hz. IR spectra were collected using a Shimadzu FTIR-8400 as potassium bromide pellets. UV-vis spectra were recorded at ambient temperature using a Hewlett-Packard 8453A diode array spectrophotometer. Fluorescence emission spectra were collected using a Shimadzu RF-530XPC spectrometer in the range of 400-800 nm, with the excitation wavelength corresponding to the absorption maxima of the molecules. The excitation and emission slit widths were set at 1.5 nm for all molecules. Mass spectral data was collected at the Mass Spectrometry Facility, University of California, Riverside. ESI/APCI mass spectra were recorded on an Agilent LCTOF (2006) with a Windows XP based operating system. Elemental analyses were performed by Atlantic Microlab, Inc., Norcross, Ga., using a PE2400 automatic analyzer or at Robertson Microlit Laboratories, Ledgewood, N.J. using a Perkin Elmer CHN Analyzer Model 2400, Series II. […] Quantum yields were determined using potassium ferrioxalate or potassium reinekate as standards to measure photon flux.^[36] Carbon monoxide was quantified as previously described.^[37] […]
A solution of 5 in CD3CN (˜3 mM) was prepared in air under minimal red light and placed in an NMR tube. The NMR tube was then covered with foil, placed in a photo reactor, and irradiated using 419 nm lamps for 24 hours.
A solution of 5 in CD3CN (˜3 mM) was prepared under N2 in a glove box and placed in an NMR tube. The NMR tube was then placed in a photo reactor and irradiated using 419 nm lamps for 24 hours. […]

Compound	solubility [1]	photoinduced CO-release in other solvents [2]
O=c1c(O)c(-c2ccccc2)oc2cc3ccccc3cc12 [Compound 5, 3-Hydroxy-2-phenyl-benzo[g]chromen-4-one]	soluble	–
CCN(CC)c1ccc(-c2oc3cc4ccccc4cc3c(=O)c2O)cc1 [Compound 7, 2-(4-(diethylamino)phenyl)-3-hydroxy-4H-benzo[g]chromen-4-one]	soluble	occurs
Oc1c(-c2ccccc2)oc2cc3ccccc3cc2c1=S [Compound 8, 3-Hydroxy-2-phenyl-4H-benzo[g]chromene-4-thione]	soluble	occurs
CCN(CC)c1ccc(-c2oc3cc4ccccc4cc3c(=S)c2O)cc1 [Compound 9, 2-(4-(diethylamino)phenyl)-3-hydroxy-4H-benzo[g]chromene-4-thione]	soluble	occurs
O=C(O)c1ccc(-c2oc3cc4ccccc4cc3c(=O)c2O)cc1 [Compound 13, 4-(3-hydroxy-4-oxo-4H-benzo[g]chromen-2-yl)benzoic acid]	soluble	–
O=C(NCC[P+](c1ccccc1)(c1ccccc1)c1ccccc1)c1ccc(-c2oc3cc4ccccc4cc3c(=O)c2O)cc1 [Compound 14]	soluble	–
